Measurements reported in the supplement of paper PMC10849652.
This is one part of the list.

By UniProt entry, the sequences of proteins in these tests, tags left out. Where a name states a change or a piece, a line headed by the entry shows the natural chain unless it says otherwise.
UniProt Q9H9A6: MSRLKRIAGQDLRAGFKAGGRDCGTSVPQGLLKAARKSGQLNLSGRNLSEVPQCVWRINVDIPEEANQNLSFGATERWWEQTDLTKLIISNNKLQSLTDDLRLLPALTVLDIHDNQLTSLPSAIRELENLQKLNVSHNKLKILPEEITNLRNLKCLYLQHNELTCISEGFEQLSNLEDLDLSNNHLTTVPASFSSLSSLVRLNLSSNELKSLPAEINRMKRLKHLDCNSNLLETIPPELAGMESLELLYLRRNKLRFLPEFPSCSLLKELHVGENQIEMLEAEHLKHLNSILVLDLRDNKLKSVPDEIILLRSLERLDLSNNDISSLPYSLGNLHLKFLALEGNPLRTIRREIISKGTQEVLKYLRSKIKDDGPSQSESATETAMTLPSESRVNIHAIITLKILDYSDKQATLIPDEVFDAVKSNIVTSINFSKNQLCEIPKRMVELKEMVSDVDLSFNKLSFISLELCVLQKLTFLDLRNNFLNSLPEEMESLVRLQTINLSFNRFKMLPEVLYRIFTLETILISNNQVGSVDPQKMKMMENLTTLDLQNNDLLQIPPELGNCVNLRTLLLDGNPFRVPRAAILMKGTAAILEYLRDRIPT
UniProt P09382, whole entry, looked up: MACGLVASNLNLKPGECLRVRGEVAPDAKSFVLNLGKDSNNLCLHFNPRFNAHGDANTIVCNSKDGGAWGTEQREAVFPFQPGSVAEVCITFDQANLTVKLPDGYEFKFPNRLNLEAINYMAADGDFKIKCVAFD
UniProt P48357: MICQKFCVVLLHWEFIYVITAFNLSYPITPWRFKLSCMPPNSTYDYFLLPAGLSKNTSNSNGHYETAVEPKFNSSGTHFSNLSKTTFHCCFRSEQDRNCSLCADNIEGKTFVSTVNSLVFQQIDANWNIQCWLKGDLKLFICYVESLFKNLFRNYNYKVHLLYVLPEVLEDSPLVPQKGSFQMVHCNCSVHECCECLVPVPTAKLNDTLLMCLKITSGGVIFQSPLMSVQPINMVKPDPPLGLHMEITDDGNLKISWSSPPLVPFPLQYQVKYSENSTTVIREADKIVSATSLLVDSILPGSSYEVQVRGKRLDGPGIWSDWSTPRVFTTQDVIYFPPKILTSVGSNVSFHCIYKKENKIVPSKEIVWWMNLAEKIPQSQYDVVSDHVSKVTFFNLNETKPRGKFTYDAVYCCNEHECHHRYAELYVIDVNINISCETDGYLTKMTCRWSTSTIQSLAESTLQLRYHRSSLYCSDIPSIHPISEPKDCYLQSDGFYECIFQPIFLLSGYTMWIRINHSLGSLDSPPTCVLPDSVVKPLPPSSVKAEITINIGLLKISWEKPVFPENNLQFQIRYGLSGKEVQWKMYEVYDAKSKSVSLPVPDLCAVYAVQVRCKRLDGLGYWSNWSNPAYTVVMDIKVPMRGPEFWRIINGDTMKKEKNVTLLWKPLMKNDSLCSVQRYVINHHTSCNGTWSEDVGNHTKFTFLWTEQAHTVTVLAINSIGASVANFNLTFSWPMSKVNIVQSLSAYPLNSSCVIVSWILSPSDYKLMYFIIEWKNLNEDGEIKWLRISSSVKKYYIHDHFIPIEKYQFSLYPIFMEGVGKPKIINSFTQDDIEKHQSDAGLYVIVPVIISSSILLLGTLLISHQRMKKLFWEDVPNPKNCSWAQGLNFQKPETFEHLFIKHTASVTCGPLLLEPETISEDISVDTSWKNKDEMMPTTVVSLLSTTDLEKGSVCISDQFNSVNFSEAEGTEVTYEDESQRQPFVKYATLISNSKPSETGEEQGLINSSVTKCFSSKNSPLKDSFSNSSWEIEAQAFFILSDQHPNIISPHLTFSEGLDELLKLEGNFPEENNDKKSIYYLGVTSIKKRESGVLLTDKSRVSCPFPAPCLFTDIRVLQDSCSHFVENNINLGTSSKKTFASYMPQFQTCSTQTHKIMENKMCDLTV
UniProt Q9UK45: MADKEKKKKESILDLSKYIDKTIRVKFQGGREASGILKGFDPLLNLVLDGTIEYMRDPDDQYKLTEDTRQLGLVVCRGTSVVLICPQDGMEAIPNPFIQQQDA
UniProt Q9UIC8: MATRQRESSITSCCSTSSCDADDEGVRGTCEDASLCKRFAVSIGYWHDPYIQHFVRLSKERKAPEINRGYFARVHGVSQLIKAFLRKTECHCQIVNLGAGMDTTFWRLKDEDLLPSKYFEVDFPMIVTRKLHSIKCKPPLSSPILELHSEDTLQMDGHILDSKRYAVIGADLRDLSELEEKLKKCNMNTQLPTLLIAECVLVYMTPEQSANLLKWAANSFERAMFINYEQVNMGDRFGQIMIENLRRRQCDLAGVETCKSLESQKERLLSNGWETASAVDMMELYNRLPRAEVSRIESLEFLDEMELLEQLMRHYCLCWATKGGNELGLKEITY
UniProt Q92539: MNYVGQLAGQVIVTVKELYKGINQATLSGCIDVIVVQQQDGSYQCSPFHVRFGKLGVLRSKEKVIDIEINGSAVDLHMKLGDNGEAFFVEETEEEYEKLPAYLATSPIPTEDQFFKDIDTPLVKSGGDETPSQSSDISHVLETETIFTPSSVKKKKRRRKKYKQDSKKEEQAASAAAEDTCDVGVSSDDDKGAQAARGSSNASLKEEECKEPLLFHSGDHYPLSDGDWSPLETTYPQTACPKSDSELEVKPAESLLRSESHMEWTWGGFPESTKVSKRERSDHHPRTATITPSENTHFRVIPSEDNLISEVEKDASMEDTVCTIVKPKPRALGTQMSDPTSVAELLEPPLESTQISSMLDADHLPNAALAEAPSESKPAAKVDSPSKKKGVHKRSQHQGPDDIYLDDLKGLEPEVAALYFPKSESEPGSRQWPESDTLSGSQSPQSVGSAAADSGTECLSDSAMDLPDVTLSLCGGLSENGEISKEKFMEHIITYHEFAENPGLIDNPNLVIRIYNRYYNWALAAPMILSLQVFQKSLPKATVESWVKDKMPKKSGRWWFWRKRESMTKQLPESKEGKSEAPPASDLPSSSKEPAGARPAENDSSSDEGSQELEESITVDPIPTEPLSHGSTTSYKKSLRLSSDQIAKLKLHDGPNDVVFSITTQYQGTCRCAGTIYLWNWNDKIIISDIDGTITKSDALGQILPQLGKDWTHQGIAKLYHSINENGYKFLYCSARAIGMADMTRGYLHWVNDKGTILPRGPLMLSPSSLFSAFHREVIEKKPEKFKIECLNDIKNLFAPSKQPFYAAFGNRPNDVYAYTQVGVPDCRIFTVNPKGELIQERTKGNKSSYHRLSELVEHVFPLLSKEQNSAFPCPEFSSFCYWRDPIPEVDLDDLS
UniProt Q9BQK8: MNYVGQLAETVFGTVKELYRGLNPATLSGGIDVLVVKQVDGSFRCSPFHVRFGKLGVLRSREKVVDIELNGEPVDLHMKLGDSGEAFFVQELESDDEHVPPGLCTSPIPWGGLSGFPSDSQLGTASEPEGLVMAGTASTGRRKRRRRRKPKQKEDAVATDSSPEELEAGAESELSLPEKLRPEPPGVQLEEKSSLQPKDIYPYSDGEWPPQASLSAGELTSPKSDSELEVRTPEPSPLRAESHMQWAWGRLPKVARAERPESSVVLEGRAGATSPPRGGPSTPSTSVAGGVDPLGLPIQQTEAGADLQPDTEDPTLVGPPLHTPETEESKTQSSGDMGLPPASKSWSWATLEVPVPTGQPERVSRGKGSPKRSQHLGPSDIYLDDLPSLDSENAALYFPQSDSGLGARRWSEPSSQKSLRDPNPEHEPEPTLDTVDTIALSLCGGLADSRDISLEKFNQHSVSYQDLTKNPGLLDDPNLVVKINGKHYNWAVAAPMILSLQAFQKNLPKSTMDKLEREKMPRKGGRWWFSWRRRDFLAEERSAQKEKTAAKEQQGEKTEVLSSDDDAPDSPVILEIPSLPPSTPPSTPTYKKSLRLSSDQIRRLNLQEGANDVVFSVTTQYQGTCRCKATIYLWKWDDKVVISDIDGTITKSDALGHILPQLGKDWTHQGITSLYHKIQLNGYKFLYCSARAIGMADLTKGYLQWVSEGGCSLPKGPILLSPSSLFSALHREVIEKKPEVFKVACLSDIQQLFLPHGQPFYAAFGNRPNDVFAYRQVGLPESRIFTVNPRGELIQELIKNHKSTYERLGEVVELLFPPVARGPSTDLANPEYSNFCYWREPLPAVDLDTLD
UniProt Q8NG48: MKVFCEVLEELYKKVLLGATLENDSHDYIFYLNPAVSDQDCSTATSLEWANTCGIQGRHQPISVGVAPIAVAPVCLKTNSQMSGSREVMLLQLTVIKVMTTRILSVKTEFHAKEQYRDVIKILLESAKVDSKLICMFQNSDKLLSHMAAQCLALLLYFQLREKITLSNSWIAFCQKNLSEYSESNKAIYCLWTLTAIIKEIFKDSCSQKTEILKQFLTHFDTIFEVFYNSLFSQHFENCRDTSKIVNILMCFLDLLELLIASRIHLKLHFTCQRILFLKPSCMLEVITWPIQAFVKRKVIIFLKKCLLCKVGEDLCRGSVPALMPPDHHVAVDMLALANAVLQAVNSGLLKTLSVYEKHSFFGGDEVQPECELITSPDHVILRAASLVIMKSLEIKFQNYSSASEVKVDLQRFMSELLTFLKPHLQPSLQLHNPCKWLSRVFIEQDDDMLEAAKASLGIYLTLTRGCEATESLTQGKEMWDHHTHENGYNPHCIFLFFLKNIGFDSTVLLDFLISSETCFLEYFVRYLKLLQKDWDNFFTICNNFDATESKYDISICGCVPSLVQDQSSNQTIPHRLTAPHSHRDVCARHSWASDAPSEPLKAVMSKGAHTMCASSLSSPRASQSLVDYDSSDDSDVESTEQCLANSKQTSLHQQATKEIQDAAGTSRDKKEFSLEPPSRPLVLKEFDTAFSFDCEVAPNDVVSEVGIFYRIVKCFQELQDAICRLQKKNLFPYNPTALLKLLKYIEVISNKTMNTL
UniProt Q14739: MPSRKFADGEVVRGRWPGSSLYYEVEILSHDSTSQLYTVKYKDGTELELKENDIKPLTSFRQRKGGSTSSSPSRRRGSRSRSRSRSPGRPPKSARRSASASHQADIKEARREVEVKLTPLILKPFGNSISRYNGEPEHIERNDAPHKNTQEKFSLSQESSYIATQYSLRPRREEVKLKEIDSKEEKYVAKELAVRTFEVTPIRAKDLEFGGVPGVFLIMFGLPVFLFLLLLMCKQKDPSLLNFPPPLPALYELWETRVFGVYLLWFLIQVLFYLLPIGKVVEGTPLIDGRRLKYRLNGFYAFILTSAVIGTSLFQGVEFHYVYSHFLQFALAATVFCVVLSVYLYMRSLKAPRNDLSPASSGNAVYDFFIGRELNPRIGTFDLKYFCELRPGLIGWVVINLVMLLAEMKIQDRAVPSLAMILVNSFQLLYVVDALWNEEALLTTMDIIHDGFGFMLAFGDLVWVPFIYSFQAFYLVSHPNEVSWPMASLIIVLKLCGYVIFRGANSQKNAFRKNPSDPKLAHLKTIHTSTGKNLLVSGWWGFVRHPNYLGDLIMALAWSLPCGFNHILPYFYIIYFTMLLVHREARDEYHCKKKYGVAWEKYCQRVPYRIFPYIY
UniProt Q96BZ8: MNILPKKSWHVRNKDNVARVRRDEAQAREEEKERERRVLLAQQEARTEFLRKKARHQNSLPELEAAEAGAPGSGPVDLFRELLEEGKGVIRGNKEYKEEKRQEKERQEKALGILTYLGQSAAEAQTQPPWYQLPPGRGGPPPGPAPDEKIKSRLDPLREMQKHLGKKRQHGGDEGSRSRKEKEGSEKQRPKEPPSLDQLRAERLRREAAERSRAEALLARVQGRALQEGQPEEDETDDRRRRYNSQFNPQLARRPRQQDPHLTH
UniProt Q86X29: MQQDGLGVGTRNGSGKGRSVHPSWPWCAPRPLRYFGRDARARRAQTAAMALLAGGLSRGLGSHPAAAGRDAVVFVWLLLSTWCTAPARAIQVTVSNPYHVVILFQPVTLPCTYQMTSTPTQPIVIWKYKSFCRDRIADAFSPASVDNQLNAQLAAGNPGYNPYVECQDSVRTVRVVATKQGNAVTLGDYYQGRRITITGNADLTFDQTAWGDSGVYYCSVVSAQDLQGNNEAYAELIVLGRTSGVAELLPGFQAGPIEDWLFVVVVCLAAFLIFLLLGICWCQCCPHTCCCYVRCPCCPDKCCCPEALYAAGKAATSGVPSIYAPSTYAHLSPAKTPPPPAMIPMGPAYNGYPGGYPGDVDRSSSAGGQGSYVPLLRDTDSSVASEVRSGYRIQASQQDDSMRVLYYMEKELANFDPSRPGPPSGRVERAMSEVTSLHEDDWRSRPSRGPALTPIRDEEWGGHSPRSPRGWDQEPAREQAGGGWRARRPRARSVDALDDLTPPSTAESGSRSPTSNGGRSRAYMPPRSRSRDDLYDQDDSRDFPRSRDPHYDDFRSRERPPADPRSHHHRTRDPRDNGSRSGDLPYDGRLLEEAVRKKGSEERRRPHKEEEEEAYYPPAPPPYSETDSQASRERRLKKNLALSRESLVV

Assays:
Experiment in all cases: log2 fold change, soluble protein after heating vs DMSO (PISA); higher = thermal stabilisation; K562 lysate, 10 uM; active = over 0.2 and 3.5 SD of the protein, either way, in both replicates (recomputed)
alvocidib = compound: CN1CC[C@H](c2c(O)cc(O)c3c(=O)cc(-c4ccccc4Cl)oc23)[C@H](O)C1 [alvocidib]
In short: (§1)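 Log-two fold change in thermal stability relative to solvent controls is reported from duplicates. For each sample, crude K562 extract from dounce-homogenised pellets in PBS pH 7.4 with 1 mM MgCl2, at 1 mg/mL protein, was treated with 10 μM compound for 30 min. Aliquots heated for 3 min across 48°C-58°C were pooled, brought to 0.5% NP-40 at 4°C and cleared at 21,000xg for 90 min. The supernatant was quantified by TMTpro 16plex LC-MS/MS with channel sums equalised.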

Tubastatin A = compound: CN1CCc2c(c3ccccc3n2Cc2ccc(C(=O)NO)cc2)C1 [Tubastatin A]
In short: as §1

[1] = compound: CNC(=O)C1=CC=CC=C1NC2=NC(=NC=C2Cl)NC3=C(C=C(C=C3)N4CCOCC4)OC
In short: as §1

defactinib = compound: CNC(=O)c1ccc(Nc2ncc(C(F)(F)F)c(NCc3nccnc3N(C)S(C)(=O)=O)n2)cc1 [defactinib]
In short: as §1

[2] = compound: CNc1nc(-c2ccc3c(N)n[nH]c3c2)cc(N2C[C@@H](C(=O)NC3CCCCC3)CC[C@H]2C)n1
In short: as §1

encorafenib = compound: COC(=O)N[C@@H](C)CNc1nccc(-c2cn(C(C)C)nc2-c2cc(Cl)cc(NS(C)(=O)=O)c2F)n1 [encorafenib]
In short: as §1

[3] = compound: COC(=O)[C@H](CCSC)NC(=O)C1=C(C=C(C=C1)NC[C@H](CS)N)C2=CC=CC=C2
In short: as §1

alisertib = compound: COc1cc(Nc2ncc3c(n2)-c2ccc(Cl)cc2C(c2c(F)cccc2OC)=NC3)ccc1C(=O)O [alisertib]
In short: as §1

[4] = compound: COc1cc2nc(-c3cc(F)ccc3O)nc(N[C@@H]3CNC[C@H]3C(C)(C)O)c2cc1OC
In short: as §1

gefitinib = compound: COc1cc2ncnc(Nc3ccc(F)c(Cl)c3)c2cc1OCCCN1CCOCC1 [gefitinib]
In short: as §1

lapatinib = compound: CS(=O)(=O)CCNCc1ccc(-c2ccc3ncnc(Nc4ccc(OCc5cccc(F)c5)c(Cl)c4)c3c2)o1 [lapatinib]
In short: as §1

pictilisib = compound: CS(=O)(=O)N1CCN(Cc2cc3nc(-c4cccc5[nH]ncc45)nc(N4CCOCC4)c3s2)CC1 [pictilisib]
In short: as §1

crizotinib = compound: C[C@@H](Oc1cc(-c2cnn(C3CCNCC3)c2)cnc1N)c1c(Cl)ccc(F)c1Cl [crizotinib]
In short: as §1

[5] = compound: C[C@H](C1=CC=C(C=C1)C(=O)NC2=C3C=CNC3=NC=C2)N
In short: as §1

duvelisib = compound: C[C@H](Nc1ncnc2nc[nH]c12)c1cc2cccc(Cl)c2c(=O)n1-c1ccccc1 [duvelisib]
In short: as §1

gandotinib = compound: Cc1cc(Nc2cc(CN3CCOCC3)c3nc(C)c(Cc4ccc(Cl)cc4F)n3n2)n[nH]1 [gandotinib]
In short: as §1

tozasertib = compound: Cc1cc(Nc2cc(N3CCN(C)CC3)nc(Sc3ccc(NC(=O)C4CC4)cc3)n2)n[nH]1 [tozasertib]
In short: as §1

doramapimod = compound: Cc1ccc(-n2nc(C(C)(C)C)cc2NC(=O)Nc2ccc(OCCN3CCOCC3)c3ccccc23)cc1 [doramapimod]
In short: as §1

bafetinib = compound: Cc1ccc(NC(=O)c2ccc(CN3CC[C@H](N(C)C)C3)c(C(F)(F)F)c2)cc1Nc1nccc(-c2cncnc2)n1 [bafetinib]
In short: as §1

[6] = compound: Cc1cccc(CC(=O)N2CCc3c2ccc(-c2cn(C)c4ncnc(N)c24)c3F)n1
In short: as §1

Target	log2 fold change (alvocidib)	log2 fold change (Tubastatin A)	log2 fold change [1]	log2 fold change (defactinib)	log2 fold change [2]	log2 fold change (encorafenib)	log2 fold change [3]	log2 fold change (alisertib)	log2 fold change [4]	log2 fold change (gefitinib)	log2 fold change (lapatinib)	log2 fold change (pictilisib)	log2 fold change (crizotinib)	log2 fold change [5]	log2 fold change (duvelisib)	log2 fold change (gandotinib)	log2 fold change (tozasertib)	log2 fold change (doramapimod)	log2 fold change (bafetinib)	log2 fold change [6]
LRRC40 (UniProt Q9H9A6)	inactive: -0.009	inactive: -0.089	inactive: 0.019	inactive: 0.013	inactive: -0.012	inactive: 0.021	inactive: -0.038	inactive: 0.031	inactive: -0.008	inactive: 0.001	inactive: -0.004	inactive: -0.012	inactive: -0.007	inactive: 0.015	inactive: -0.025	inactive: -0.088	inactive: 0.014	inactive: 0.009	inactive: -0.028	inactive: -0.032
LGALS1 (UniProt P09382)	inactive: 0.024	inactive: 0.048	inactive: -0.006	inactive: 0.006	inactive: 0.068	inactive: 0.007	inactive: -0.043	inactive: 0.038	inactive: -0.006	inactive: -0.041	inactive: 0.029	inactive: 0.029	inactive: 0.017	inactive: 0.03	inactive: 0.013	inactive: -0.016	inactive: 0.009	inactive: 0.01	inactive: 0.055	inactive: 0.012
LEPR (UniProt P48357)	inactive: -0.02	inactive: 0.061	inactive: -0.04	inactive: 0.004	inactive: -0.076	inactive: 0.058	inactive: -0.05	inactive: -0.044	inactive: -0.159	inactive: 0.007	inactive: -0.019	inactive: 0.009	inactive: 0.065	inactive: -0.106	inactive: -0.013	inactive: 0.034	inactive: 0.041	inactive: -0.02	inactive: 0.036	inactive: 0.1
LMTK2 (UniProt Q8IWU2)	inactive: -0.018	inactive: 0.014	inactive: 0.013	inactive: -0.067	inactive: -0.037	inactive: 0.028	inactive: 0.05	inactive: -0.043	inactive: 0.046	inactive: -0.102	inactive: -0.019	inactive: -0.059	inactive: -0.025	inactive: -0.015	inactive: 0.105	inactive: -0.016	inactive: 0.03	inactive: 0.004	inactive: 0.038	inactive: 0.033
LMAN2L isoform 2 (UniProt Q9H0V9)	inactive: 0.018	inactive: 0.05	inactive: 0.014	inactive: -0.027	inactive: 0.004	inactive: 0.028	inactive: -0.032	inactive: -0.043	inactive: 0.023	inactive: -0.029	inactive: -0.05	inactive: -0.031	inactive: -0.034	inactive: -0.023	inactive: -0.02	inactive: -0.01	inactive: 0.014	inactive: -0.055	inactive: -0.035	inactive: 0.069
LSM7 (UniProt Q9UK45)	inactive: -0.024	inactive: 0.04	inactive: -0.026	inactive: -0.022	inactive: 0.051	inactive: -0.025	inactive: 0.003	inactive: 0	inactive: -0.003	inactive: -0.051	inactive: 0.02	inactive: 0.029	inactive: 0.033	inactive: -0.072	inactive: 0.033	inactive: 0.026	inactive: 0.051	inactive: -0.014	inactive: -0.067	inactive: 0.063
LCMT1 (UniProt Q9UIC8)	inactive: 0.011	inactive: 0.005	inactive: -0.012	inactive: -0.006	inactive: -0.027	inactive: 0.009	inactive: -0.028	inactive: -0.011	inactive: 0	inactive: 0.053	inactive: -0.008	inactive: -0.013	inactive: 0.004	inactive: 0.051	inactive: -0.017	inactive: -0.039	inactive: 0.022	inactive: -0.015	inactive: -0.025	inactive: -0.023
LPIN2 (UniProt Q92539)	inactive: 0.005	inactive: -0.043	inactive: 0.056	inactive: 0.045	inactive: 0.006	inactive: 0.038	inactive: 0.021	inactive: 0.001	inactive: 0.017	inactive: 0.047	inactive: 0.013	inactive: 0.007	inactive: -0.027	inactive: 0.003	inactive: 0.005	inactive: -0.056	inactive: -0.04	inactive: -0.008	inactive: -0.008	inactive: 0.04
LPIN3 isoform 2 (UniProt Q9BQK8)	inactive: 0.057	inactive: -0.015	inactive: 0.009	inactive: -0.09	inactive: -0.046	inactive: 0.041	inactive: -0.022	inactive: 0.006	inactive: 0.046	inactive: 0.091	inactive: -0.038	inactive: -0.036	inactive: -0.062	inactive: 0.004	inactive: -0.017	inactive: -0.044	inactive: 0.045	inactive: -0.025	inactive: 0.049	inactive: -0.034
LINS1 (UniProt Q8NG48)	inactive: 0.074	inactive: -0.08	inactive: 0.044	inactive: 0.071	inactive: -0.109	inactive: 0.095	inactive: -0.001	inactive: -0.174	inactive: 0.023	inactive: 0.025	inactive: -0.021	inactive: -0.012	inactive: -0.005	inactive: -0.073	inactive: -0.015	inactive: -0.093	inactive: -0.068	inactive: 0.045	inactive: -0.027	inactive: 0.06
LPCAT1 (UniProt Q8NF37)	inactive: -0.117	inactive: 0.117	inactive: 0.067	inactive: 0.045	inactive: 0.097	inactive: 0.037	inactive: -0.063	inactive: 0.07	inactive: -0.01	inactive: -0.009	inactive: 0.005	inactive: -0.034	inactive: -0.031	inactive: -0.209	inactive: -0.107	inactive: 0.115	inactive: 0.006	inactive: -0.048	inactive: -0.072	inactive: 0.078
LPCAT3 (UniProt Q6P1A2)	inactive: 0.003	inactive: 0.008	inactive: 0.007	inactive: 0.051	inactive: -0.163	inactive: 0.023	inactive: 0.131	inactive: 0.021	inactive: 0.023	inactive: -0.062	inactive: 0.004	inactive: -0.048	inactive: -0.146	inactive: -0.041	inactive: 0.071	inactive: 0.002	inactive: -0.035	inactive: 0.091	inactive: 0.18	inactive: 0.035
LBR (UniProt Q14739)	inactive: 0.072	inactive: 0.025	inactive: -0.063	inactive: 0.04	inactive: -0.002	inactive: -0.021	inactive: 0.027	inactive: 0.071	inactive: 0.001	inactive: -0.094	inactive: -0.071	inactive: -0.068	inactive: 0.063	inactive: 0.159	inactive: -0.039	active: -0.285	inactive: -0.003	inactive: -0.06	inactive: -0.114	inactive: -0.096
LENG1 (UniProt Q96BZ8)	inactive: -0.062	inactive: 0.062	inactive: -0.098	inactive: -0.029	inactive: 0.041	inactive: 0.032	inactive: 0.01	inactive: 0.008	inactive: -0.033	inactive: 0.098	inactive: 0.041	inactive: 0.045	inactive: -0.026	inactive: -0.076	inactive: -0.025	inactive: 0.079	inactive: 0	inactive: 0.035	inactive: -0.041	inactive: 0.007
LSR (UniProt Q86X29)	inactive: -0.03	inactive: -0.045	inactive: -0.033	inactive: 0.033	inactive: -0.091	inactive: 0.063	inactive: -0.041	inactive: 0.018	inactive: -0.036	inactive: 0.024	inactive: -0.023	inactive: 0.02	inactive: 0.017	inactive: -0.033	inactive: -0.001	inactive: 0.034	inactive: 0.022	inactive: -0.025	inactive: 0.072	inactive: 0.033
LRSAM1 (UniProt Q6UWE0)	inactive: -0.051	inactive: -0.002	inactive: 0.011	inactive: -0.006	inactive: 0.045	inactive: 0.009	inactive: -0.07	inactive: -0.021	inactive: 0.007	inactive: 0.015	inactive: 0.026	inactive: -0.021	inactive: 0.008	inactive: -0.021	inactive: -0.018	inactive: 0.004	inactive: -0.002	inactive: 0.027	inactive: 0.045	inactive: 0.014

Complete entries from above. Order of values: log2 fold change (alvocidib) | log2 fold change (Tubastatin A) | log2 fold change [1] | log2 fold change (defactinib) | log2 fold change [2] | log2 fold change (encorafenib) | log2 fold change [3] | log2 fold change (alisertib) | log2 fold change [4] | log2 fold change (gefitinib) | log2 fold change (lapatinib) | log2 fold change (pictilisib) | log2 fold change (crizotinib) | log2 fold change [5] | log2 fold change (duvelisib) | log2 fold change (gandotinib) | log2 fold change (tozasertib) | log2 fold change (doramapimod) | log2 fold change (bafetinib) | log2 fold change [6]
LPIN2 (UniProt Q92539) in the list: inactive: 0.005 | inactive: -0.043 | inactive: 0.056 | inactive: 0.045 | inactive: 0.006 | inactive: 0.038 | inactive: 0.021 | inactive: 0.001 | inactive: 0.017 | inactive: 0.047 | inactive: 0.013 | inactive: 0.007 | inactive: -0.027 | inactive: 0.003 | inactive: 0.005 | inactive: -0.056 | inactive: -0.04 | inactive: -0.008 | inactive: -0.008 | inactive: 0.04
LMAN2L isoform 2 (UniProt Q9H0V9) in the list: inactive: 0.018 | inactive: 0.05 | inactive: 0.014 | inactive: -0.027 | inactive: 0.004 | inactive: 0.028 | inactive: -0.032 | inactive: -0.043 | inactive: 0.023 | inactive: -0.029 | inactive: -0.05 | inactive: -0.031 | inactive: -0.034 | inactive: -0.023 | inactive: -0.02 | inactive: -0.01 | inactive: 0.014 | inactive: -0.055 | inactive: -0.035 | inactive: 0.069
